Experimental data as given in the supplement of paper PMC12823440, “Inhibitors supercharge kinase turnover through native proteolytic circuits” (Nature, 2025).
Counter-ions that a name gives are not always drawn. The list shows a part of the results. Hit calls seldom repeat between salt and free forms of one compound.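 Kinases, fused to nanoluciferase, were expressed in K562 cells; luminescence was measured every 4 h from 2 to 18 h as percent of control (DMSO = 100%, positive control = 0%). A time point is decreased if signal falls significantly (2 sigma). Hits were called by the authors by a rule that is not shown; the count of time points alone does not decide it.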

Protein sequences, listed by entry. Tags and fused reporters are not part of them. Lines headed by an entry give the natural chain unless they say otherwise; changes in a name come on top.
UniProt P07949, whole entry, looked up: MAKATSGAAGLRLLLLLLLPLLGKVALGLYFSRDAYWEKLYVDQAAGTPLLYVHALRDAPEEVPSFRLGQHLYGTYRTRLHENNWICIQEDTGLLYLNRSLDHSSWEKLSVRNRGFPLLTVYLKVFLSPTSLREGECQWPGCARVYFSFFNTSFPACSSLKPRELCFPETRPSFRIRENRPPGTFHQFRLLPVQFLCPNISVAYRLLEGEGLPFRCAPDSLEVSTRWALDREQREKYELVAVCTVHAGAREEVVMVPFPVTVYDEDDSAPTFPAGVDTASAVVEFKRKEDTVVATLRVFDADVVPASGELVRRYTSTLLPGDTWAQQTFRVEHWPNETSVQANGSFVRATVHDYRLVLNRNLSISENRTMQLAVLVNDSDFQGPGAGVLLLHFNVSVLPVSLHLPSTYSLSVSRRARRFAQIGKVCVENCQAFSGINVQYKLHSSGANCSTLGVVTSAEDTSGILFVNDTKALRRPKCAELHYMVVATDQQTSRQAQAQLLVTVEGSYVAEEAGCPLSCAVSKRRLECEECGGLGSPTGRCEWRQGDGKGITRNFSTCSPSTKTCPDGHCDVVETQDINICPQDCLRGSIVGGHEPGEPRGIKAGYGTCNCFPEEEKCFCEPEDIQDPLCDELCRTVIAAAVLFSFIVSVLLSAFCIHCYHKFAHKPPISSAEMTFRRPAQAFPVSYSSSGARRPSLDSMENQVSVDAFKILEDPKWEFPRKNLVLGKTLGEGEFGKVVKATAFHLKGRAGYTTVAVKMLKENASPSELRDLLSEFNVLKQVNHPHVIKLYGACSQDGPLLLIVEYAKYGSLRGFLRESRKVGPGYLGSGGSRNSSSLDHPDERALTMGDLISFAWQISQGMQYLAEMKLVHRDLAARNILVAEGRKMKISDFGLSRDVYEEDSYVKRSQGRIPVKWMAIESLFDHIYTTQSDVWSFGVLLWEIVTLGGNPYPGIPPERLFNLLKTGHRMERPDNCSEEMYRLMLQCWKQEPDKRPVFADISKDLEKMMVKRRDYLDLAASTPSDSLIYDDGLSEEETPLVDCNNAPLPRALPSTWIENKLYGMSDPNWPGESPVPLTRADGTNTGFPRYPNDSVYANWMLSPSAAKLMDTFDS
UniProt P07949, whole entry M918T, looked up: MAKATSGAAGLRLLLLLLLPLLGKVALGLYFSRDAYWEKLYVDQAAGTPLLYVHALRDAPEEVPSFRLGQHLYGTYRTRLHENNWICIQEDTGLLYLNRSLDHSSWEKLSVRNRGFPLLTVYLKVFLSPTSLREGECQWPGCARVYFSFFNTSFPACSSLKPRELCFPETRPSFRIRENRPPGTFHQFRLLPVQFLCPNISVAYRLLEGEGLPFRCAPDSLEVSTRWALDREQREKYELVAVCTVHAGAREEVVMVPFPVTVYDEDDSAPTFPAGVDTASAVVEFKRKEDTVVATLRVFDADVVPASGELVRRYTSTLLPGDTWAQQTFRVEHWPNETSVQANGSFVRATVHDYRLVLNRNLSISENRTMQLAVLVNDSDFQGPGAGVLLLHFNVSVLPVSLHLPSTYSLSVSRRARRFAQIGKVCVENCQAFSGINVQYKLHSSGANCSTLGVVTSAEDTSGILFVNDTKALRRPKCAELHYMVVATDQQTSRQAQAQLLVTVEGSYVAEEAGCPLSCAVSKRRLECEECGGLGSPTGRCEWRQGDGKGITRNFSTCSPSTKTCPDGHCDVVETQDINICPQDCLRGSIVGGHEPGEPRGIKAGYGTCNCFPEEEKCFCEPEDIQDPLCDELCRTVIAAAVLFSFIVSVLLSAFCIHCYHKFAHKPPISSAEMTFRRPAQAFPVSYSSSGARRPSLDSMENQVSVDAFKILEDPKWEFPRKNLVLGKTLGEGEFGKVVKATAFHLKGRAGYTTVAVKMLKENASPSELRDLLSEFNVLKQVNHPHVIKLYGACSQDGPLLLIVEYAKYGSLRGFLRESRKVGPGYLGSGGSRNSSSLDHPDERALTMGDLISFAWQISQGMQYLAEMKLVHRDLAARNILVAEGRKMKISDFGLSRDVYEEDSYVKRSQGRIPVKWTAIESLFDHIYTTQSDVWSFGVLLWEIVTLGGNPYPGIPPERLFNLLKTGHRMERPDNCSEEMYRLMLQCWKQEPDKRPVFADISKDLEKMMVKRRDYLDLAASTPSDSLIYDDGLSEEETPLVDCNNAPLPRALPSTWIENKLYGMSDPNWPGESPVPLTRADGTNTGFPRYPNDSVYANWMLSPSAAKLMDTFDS
UniProt Q01974, whole entry: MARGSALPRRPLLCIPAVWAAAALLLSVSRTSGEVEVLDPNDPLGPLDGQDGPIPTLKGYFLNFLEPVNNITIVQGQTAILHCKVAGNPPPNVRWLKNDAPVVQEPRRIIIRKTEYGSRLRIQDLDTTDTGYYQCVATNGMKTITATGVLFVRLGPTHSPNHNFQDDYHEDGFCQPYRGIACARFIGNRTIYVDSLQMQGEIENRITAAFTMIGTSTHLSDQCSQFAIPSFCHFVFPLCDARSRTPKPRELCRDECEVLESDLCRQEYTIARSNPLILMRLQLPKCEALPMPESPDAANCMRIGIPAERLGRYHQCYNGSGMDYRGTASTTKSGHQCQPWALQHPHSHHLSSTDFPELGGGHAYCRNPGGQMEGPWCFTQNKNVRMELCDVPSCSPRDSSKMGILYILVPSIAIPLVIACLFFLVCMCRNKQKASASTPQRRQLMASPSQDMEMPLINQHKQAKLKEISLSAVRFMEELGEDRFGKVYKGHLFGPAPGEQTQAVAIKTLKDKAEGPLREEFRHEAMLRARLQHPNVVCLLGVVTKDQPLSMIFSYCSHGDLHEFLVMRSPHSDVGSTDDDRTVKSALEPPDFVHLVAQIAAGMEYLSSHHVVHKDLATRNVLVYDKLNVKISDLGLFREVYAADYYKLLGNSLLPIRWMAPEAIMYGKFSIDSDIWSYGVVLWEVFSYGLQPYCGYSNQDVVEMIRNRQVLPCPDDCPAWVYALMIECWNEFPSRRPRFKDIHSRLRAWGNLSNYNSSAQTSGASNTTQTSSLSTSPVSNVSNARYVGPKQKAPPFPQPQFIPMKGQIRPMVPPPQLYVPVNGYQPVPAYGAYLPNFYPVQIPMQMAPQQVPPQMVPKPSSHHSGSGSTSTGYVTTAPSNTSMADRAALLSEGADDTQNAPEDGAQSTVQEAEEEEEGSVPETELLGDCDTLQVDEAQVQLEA
UniProt Q15418, whole entry: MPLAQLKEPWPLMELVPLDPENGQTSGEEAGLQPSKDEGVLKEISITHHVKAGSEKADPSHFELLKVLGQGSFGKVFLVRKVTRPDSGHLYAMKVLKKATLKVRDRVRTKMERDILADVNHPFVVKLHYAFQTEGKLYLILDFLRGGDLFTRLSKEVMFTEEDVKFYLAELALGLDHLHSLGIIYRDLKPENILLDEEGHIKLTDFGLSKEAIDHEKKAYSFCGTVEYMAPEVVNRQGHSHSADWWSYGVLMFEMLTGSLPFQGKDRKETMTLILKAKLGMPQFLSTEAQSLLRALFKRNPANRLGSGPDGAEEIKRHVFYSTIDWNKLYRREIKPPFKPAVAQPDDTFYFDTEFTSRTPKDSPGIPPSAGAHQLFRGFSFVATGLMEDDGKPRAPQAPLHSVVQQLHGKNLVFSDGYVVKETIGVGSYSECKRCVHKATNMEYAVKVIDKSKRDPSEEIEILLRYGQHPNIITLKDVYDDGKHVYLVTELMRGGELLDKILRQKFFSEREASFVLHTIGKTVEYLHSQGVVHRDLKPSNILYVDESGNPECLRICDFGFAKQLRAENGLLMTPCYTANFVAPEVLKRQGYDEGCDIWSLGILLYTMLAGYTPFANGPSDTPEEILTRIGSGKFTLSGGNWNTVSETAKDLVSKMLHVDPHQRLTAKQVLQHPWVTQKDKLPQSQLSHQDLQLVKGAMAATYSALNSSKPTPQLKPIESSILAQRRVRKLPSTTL
UniProt Q9NYA1, whole entry: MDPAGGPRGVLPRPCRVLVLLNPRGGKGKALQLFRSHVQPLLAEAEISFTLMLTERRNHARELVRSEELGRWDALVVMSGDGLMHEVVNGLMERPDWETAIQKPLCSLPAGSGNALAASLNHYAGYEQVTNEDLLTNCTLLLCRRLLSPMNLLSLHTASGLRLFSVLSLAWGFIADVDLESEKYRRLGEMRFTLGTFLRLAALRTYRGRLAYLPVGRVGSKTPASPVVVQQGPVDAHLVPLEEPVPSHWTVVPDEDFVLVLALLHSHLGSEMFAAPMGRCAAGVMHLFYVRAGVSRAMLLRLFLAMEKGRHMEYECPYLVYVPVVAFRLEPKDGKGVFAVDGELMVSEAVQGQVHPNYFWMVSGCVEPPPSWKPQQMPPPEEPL
UniProt Q15208: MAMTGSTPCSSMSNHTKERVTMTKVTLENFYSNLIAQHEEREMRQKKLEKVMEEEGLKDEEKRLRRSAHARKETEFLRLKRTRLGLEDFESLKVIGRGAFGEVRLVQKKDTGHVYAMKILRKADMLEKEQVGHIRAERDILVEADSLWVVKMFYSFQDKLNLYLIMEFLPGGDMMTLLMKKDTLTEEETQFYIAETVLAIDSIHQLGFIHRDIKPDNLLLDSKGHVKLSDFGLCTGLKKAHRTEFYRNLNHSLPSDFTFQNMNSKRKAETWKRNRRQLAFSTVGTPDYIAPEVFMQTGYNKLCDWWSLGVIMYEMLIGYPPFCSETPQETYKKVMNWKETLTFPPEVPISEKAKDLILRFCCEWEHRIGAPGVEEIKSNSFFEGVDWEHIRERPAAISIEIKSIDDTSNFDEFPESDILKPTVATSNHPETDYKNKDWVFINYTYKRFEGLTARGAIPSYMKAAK
UniProt P42680: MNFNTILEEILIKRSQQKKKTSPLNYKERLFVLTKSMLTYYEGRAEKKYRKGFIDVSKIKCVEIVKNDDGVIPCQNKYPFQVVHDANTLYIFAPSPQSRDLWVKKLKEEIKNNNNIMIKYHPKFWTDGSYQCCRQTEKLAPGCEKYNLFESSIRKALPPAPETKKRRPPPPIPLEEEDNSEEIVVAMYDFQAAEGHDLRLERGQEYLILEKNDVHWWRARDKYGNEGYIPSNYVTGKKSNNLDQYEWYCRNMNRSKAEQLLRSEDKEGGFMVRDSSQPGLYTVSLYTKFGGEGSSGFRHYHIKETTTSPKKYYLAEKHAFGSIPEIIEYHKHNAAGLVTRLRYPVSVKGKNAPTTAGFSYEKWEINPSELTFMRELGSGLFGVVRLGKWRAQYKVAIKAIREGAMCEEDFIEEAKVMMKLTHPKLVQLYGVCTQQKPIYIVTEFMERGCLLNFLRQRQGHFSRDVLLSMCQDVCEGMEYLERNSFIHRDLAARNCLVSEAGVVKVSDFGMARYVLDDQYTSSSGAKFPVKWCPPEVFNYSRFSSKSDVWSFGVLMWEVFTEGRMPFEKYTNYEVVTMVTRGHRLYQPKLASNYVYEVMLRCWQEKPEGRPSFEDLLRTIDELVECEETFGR
UniProt P43403: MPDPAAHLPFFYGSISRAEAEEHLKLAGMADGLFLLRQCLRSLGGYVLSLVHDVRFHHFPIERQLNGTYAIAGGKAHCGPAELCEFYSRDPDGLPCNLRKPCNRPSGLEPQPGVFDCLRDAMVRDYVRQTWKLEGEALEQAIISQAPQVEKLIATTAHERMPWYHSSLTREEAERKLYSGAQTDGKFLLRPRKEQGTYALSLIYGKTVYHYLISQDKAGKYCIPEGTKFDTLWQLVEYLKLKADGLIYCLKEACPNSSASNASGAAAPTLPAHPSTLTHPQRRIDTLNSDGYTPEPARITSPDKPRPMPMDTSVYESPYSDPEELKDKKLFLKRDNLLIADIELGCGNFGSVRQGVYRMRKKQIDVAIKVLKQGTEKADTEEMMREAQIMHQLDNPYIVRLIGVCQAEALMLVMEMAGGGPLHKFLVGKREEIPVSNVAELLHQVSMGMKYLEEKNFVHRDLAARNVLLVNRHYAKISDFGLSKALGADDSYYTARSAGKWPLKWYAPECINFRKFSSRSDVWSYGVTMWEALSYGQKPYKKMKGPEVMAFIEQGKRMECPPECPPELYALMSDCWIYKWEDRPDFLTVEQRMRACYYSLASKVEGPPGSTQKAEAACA
UniProt P31749: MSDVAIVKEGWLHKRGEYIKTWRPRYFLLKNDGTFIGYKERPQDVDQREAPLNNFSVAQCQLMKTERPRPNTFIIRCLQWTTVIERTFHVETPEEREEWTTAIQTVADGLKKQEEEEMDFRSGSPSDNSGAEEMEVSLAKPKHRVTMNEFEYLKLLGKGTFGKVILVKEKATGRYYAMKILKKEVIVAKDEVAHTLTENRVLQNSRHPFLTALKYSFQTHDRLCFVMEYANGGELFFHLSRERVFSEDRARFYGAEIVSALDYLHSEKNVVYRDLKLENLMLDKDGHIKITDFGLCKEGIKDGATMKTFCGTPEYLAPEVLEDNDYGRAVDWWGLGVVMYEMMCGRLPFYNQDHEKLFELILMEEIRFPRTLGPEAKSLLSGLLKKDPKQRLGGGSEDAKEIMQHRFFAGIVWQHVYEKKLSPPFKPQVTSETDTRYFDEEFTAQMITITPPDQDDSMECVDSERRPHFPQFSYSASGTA

Assays:
Details in all cases: K562; 2-18 h
RET = RET (UniProt P07949); assay: kinase-Nluc reporter destabilization hit call (1 = scored as downregulated) (binary); higher = compound decreases kinase abundance
[1] = biological target: RET_M918T (clone: RET_mut) (UniProt P07949); assay: as above
RIOK1 = RIOK1 (UniProt Q9BRS2); assay: as above
RIPK1 = RIPK1 (UniProt Q13546); assay: as above
RIPK2 = RIPK2 (UniProt O43353); assay: as above
ROR2 = ROR2 (UniProt Q01974); assay: as above
RPS6KA1 = RPS6KA1 (UniProt Q15418); assay: as above
SPHK1 = SPHK1 (UniProt Q9NYA1); assay: as above
SRC = SRC (UniProt P12931); assay: as above
STK24 = STK24 (UniProt Q9Y6E0); assay: as above
STK38 = STK38 (UniProt Q15208); assay: as above
SYK = SYK (UniProt P43405); assay: as above
TEC = TEC (UniProt P42680); assay: as above
TYK2 = TYK2 (UniProt P29597); assay: as above
ULK3 = ULK3 (UniProt Q6PHR2); assay: as above
YES1 = YES1 (UniProt P07947); assay: as above
ZAK = ZAK (UniProt Q9NYL2); assay: as above
ZAP70 = ZAP70 (UniProt P43403); assay: as above
ABL1 = ABL1 (UniProt P00519); assay: number of time points (of 5) at which kinase-Nluc abundance scored as decreased, DMSO-normalised (count); higher = more persistent destabilization
AKT1 = AKT1 (UniProt P31749); assay: as above

Row | SMILES | kinase-Nluc reporter destabilization hit call (RET) | kinase-Nluc reporter destabilization hit call [1] | kinase-Nluc reporter destabilization hit call (RIOK1) | kinase-Nluc reporter destabilization hit call (RIPK1) | kinase-Nluc reporter destabilization hit call (RIPK2) | kinase-Nluc reporter destabilization hit call (ROR2) | kinase-Nluc reporter destabilization hit call (RPS6KA1) | kinase-Nluc reporter destabilization hit call (SPHK1) | kinase-Nluc reporter destabilization hit call (SRC) | kinase-Nluc reporter destabilization hit call (STK24) | kinase-Nluc reporter destabilization hit call (STK38) | kinase-Nluc reporter destabilization hit call (SYK) | kinase-Nluc reporter destabilization hit call (TEC) | kinase-Nluc reporter destabilization hit call (TYK2) | kinase-Nluc reporter destabilization hit call (ULK3) | kinase-Nluc reporter destabilization hit call (YES1) | kinase-Nluc reporter destabilization hit call (ZAK) | kinase-Nluc reporter destabilization hit call (ZAP70) | number of time points (ABL1) | number of time points (AKT1)
1 | O=C(/C=C/c1ccc(O)c(O)c1)c1ccc(O[C@@H]2O[C@H](CO)[C@@H](O)[C@H](O)[C@H]2O)c(O)c1O [Marein] (10 µM) | inactive: 0 | inactive: 0 | inactive: 0 | inactive: 0 | inactive: 0 | inactive: 0 | inactive: 0 | inactive: 0 | inactive: 0 | inactive: 0 | inactive: 0 | inactive: 0 | inactive: 0 | inactive: 0 | inactive: 0 | inactive: 0 | inactive: 0 | inactive: 0 | 0 | 0
2 | CS(=O)(=O)c1ccc(-c2cnc(N)c(C(=O)Nc3ccccc3)n2)cc1 (10 µM) | inactive: 0 | inactive: 0 | inactive: 0 | inactive: 0 | inactive: 0 | inactive: 0 | inactive: 0 | inactive: 0 | inactive: 0 | inactive: 0 | inactive: 0 | inactive: 0 | inactive: 0 | inactive: 0 | inactive: 0 | inactive: 0 | inactive: 0 | inactive: 0 | 0 | 0
3 | CCN(CC)c1ccc2cc(C(=O)N3CCN(C(=O)C4=Cc5c(Br)cccc5S4(=O)=O)CC3)c(=O)oc2c1 (2 µM) | inactive: 0 | inactive: 0 | inactive: 0 | inactive: 0 | inactive: 0 | inactive: 0 | inactive: 0 | inactive: 0 | inactive: 0 | inactive: 0 | inactive: 0 | inactive: 0 | inactive: 0 | inactive: 0 | inactive: 0 | inactive: 0 | inactive: 0 | inactive: 0 | 0 | 0
4 | CO[C@H]1C[C@@H]2CC[C@@H](C)[C@@](O)(O2)C(=O)C(=O)N2CCCC[C@H]2C(=O)O[C@H]([C@H](C)C[C@@H]2CC[C@@H](O)[C@H](OC)C2)CC(=O)[C@H](C)/C=C(\C)[C@@H](O)[C@@H](OC)C(=O)[C@H](C)C[C@H](C)/C=C/C=C/C=C/1C [Rapamycin] (10 µM) | inactive: 0 | inactive: 0 | inactive: 0 | inactive: 0 | inactive: 0 | inactive: 0 | inactive: 0 | inactive: 0 | inactive: 0 | inactive: 0 | inactive: 0 | inactive: 0 | inactive: 0 | inactive: 0 | inactive: 0 | inactive: 0 | inactive: 0 | inactive: 0 | 0 | 0
5 | COc1cc(S(C)(=O)=O)ccc1Nc1nc2ccc(-c3ccc(NC(=O)[C@H](C)c4ccc(F)cc4)cc3)cn2n1 [Empesertib] (10 µM) | inactive: 0 | inactive: 0 | inactive: 0 | inactive: 0 | inactive: 0 | inactive: 0 | inactive: 0 | inactive: 0 | inactive: 0 | inactive: 0 | inactive: 0 | inactive: 0 | inactive: 0 | inactive: 0 | inactive: 0 | inactive: 0 | inactive: 0 | inactive: 0 | 0 | 0
6 | OCCNC1CCCc2c1[nH]c1ccc(-c3ccccc3)cc21 (stereo not given) (2.5 µM) | inactive: 0 | inactive: 0 | inactive: 0 | inactive: 0 | inactive: 0 | inactive: 0 | inactive: 0 | inactive: 0 | inactive: 0 | inactive: 0 | inactive: 0 | inactive: 0 | inactive: 0 | inactive: 0 | inactive: 0 | inactive: 0 | inactive: 0 | inactive: 0 | 0 | 0
7 | CN1CCN(c2ccc(C(=O)Nc3cc(-c4cccc(NS(=O)(=O)c5ccccc5)c4)[nH]n3)cc2)CC1 [BPR1J-097 Hydrochloride] (2.5 µM) | inactive: 0 | inactive: 0 | inactive: 0 | inactive: 0 | inactive: 0 | inactive: 0 | inactive: 0 | inactive: 0 | inactive: 0 | inactive: 0 | inactive: 0 | inactive: 0 | inactive: 0 | inactive: 0 | inactive: 0 | inactive: 0 | inactive: 0 | inactive: 0 | 0 | 0
8 | COc1cc(F)c(F)c(Nc2ccc(I)cc2F)c1NS(=O)(=O)C1(C[C@H](O)CO)CC1 [Refametinib] (10 µM) | inactive: 0 | inactive: 0 | inactive: 0 | inactive: 0 | inactive: 0 | inactive: 0 | inactive: 0 | inactive: 0 | inactive: 0 | inactive: 0 | inactive: 0 | inactive: 0 | inactive: 0 | inactive: 0 | inactive: 0 | inactive: 0 | inactive: 0 | inactive: 0 | 1 | 0
